According to patent US20210145933A1:
No constants are given. Whether binding was seen depends on the method and setting. Some results given as binding are weak or reduced against the parent protein; the word gives no strength. One block for each substance: values may come before it.

Sequences of proteins named here, by UniProt entry; tags and fusion partners are left off. A change or cut given only in a name is not applied to a line headed by its entry.
UniProt P01024: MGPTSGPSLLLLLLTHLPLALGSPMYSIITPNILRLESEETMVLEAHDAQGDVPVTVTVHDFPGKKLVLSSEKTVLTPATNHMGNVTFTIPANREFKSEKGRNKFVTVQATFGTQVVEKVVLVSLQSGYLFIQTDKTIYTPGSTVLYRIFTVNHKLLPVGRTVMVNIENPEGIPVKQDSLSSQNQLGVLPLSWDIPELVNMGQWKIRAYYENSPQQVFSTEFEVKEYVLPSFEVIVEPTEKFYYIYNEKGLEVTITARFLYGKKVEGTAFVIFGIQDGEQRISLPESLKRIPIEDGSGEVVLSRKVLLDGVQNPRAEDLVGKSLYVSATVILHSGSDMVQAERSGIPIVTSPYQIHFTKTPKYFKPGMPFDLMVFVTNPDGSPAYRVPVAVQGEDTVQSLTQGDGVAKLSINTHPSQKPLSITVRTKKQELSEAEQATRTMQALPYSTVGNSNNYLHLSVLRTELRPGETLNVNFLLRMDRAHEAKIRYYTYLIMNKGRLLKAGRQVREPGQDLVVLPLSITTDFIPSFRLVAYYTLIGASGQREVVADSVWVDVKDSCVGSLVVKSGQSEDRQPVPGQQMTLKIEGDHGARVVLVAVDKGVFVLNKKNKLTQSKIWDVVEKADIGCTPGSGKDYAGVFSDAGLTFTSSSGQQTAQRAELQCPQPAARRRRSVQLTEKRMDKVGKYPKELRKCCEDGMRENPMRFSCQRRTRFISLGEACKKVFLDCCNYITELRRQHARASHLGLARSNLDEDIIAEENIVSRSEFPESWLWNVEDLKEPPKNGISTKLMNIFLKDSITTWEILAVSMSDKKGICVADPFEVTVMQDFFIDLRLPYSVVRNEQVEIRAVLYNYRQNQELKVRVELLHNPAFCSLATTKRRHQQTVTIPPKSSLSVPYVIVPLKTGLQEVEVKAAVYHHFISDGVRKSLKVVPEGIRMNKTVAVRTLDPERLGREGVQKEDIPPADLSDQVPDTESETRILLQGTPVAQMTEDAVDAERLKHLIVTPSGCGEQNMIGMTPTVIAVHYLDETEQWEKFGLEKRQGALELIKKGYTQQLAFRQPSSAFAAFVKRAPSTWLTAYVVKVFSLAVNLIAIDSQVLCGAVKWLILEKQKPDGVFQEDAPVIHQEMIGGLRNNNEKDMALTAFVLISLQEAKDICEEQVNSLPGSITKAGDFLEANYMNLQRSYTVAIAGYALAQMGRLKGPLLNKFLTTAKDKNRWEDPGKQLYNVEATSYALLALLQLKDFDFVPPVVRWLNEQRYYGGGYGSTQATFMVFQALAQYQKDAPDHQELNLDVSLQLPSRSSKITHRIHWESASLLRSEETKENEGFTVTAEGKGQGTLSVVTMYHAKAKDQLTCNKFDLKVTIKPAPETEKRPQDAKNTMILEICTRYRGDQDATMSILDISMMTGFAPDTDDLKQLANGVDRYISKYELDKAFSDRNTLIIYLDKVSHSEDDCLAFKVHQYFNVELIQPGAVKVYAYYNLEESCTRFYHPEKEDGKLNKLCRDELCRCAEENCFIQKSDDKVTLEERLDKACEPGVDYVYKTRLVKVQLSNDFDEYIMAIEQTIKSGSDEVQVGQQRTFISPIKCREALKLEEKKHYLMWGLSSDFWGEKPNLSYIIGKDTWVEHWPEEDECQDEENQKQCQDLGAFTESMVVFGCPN
UniProt P08603: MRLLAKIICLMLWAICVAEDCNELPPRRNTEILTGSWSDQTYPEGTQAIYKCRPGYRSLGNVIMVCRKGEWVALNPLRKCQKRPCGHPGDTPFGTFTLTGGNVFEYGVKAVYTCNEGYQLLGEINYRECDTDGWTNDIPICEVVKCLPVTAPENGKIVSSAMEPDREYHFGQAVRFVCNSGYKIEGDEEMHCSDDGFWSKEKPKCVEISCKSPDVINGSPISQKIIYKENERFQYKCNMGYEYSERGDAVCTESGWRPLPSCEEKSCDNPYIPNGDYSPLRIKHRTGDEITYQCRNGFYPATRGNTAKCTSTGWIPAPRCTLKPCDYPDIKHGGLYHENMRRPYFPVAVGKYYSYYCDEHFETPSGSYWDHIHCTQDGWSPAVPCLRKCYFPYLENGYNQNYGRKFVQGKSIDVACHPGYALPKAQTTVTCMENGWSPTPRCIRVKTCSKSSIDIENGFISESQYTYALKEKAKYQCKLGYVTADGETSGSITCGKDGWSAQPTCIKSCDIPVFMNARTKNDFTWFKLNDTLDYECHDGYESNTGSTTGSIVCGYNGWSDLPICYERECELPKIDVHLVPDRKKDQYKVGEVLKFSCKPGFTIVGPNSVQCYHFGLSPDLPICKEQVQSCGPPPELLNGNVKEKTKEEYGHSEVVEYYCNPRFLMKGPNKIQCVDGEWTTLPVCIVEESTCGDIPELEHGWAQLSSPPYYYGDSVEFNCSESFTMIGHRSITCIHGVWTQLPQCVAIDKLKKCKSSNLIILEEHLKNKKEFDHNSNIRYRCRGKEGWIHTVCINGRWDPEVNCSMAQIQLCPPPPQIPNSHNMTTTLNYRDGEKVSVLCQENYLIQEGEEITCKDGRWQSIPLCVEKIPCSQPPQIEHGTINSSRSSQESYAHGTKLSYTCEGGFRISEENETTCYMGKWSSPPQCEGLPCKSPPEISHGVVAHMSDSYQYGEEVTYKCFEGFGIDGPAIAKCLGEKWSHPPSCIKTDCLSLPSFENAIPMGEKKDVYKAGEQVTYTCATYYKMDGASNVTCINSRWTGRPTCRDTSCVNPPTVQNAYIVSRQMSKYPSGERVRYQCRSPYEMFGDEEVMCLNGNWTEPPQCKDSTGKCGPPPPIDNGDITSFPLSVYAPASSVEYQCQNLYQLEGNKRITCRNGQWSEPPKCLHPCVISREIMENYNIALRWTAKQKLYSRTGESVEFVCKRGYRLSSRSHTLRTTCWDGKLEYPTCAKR
UniProt P17927: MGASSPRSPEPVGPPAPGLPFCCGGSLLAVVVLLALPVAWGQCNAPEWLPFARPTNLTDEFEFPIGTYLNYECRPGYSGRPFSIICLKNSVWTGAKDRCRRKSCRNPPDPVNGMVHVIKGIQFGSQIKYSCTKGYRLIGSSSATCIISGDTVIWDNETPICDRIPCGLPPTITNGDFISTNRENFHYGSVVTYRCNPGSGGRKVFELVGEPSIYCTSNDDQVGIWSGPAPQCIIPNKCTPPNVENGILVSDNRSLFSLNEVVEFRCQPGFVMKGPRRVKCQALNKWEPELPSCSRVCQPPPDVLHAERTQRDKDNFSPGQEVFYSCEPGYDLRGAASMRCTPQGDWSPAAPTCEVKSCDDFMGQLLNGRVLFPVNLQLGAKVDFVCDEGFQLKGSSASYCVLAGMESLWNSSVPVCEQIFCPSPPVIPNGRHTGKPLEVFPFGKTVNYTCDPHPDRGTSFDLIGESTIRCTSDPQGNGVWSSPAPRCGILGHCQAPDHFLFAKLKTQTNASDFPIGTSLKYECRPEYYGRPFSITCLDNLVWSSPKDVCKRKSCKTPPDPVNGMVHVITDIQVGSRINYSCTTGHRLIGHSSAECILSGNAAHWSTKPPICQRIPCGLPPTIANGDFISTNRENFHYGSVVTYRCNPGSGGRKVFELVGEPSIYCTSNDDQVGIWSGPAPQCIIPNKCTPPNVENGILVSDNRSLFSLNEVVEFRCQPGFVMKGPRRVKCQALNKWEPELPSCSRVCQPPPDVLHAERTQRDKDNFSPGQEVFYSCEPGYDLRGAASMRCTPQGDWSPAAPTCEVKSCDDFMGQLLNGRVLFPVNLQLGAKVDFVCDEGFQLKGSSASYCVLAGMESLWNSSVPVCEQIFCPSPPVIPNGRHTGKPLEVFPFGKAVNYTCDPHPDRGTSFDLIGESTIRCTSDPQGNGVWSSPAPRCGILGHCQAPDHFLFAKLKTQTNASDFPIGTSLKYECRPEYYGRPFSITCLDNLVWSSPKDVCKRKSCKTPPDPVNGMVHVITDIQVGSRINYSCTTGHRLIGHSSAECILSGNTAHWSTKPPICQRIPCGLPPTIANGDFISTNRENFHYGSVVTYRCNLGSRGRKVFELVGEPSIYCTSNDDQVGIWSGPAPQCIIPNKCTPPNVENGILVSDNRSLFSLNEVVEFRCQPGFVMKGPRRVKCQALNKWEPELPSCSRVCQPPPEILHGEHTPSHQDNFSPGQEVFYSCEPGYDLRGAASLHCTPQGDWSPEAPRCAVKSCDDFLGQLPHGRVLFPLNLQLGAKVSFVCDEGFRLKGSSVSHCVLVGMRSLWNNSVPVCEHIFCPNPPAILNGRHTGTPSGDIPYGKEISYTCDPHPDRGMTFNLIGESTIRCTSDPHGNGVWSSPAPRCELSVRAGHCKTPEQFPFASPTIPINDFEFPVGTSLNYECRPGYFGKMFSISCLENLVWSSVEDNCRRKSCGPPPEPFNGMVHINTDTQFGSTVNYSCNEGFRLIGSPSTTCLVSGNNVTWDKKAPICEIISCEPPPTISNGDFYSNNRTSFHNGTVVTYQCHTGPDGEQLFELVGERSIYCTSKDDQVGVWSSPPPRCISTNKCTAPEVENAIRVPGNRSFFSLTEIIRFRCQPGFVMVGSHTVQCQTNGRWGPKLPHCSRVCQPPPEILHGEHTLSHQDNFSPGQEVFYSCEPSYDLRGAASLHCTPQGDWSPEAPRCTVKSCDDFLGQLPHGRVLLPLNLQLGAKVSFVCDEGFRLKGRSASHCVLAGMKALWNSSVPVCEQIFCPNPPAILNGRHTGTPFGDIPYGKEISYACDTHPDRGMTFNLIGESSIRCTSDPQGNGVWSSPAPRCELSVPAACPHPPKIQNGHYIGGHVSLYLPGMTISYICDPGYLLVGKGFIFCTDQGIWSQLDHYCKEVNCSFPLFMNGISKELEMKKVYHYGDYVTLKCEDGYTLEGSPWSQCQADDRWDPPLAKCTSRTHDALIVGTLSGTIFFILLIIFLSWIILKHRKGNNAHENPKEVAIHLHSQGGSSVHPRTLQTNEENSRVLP

Key:
[1] = molecular target: C3b (human) (UniProt P01024); experiment: BLI (OctetRed96), biotinylated C3b on streptavidin (SAX) sensors, concentration series of FHL-1 [cont'd]
[2] = molecular target: C3b (human) (UniProt P01024); experiment: BLI (OctetRed96), biotinylated C3b on streptavidin (SAX) sensors, concentration series of FH [cont'd]
[3] = molecular target: C3b (human) (UniProt P01024); experiment: BLI (OctetRed96), immobilised biotinylated C3b
[4] = molecular target: C3b (human) (UniProt P01024); experiment: BLI (OctetRed96), biotinylated C3b on streptavidin (SAX) sensors, concentration series of CR1a [cont'd]

binding [1]: binds
Substance: Complement Factor H isoform FHL-1 (from UniProt P08603 19-445)

binding [2]: binds
Substance: Complement Factor H (FH) (from UniProt P08603 19-1231)

binding [3]: binds | binding [4]: binds
Substance: CR1a (CCPs 8-10 of human Complement Receptor 1, secreted from HEK293 cells) (from UniProt P17927 491-684)
